# Test results as given in the supplement of paper PMC10032668.
# Chains of the proteins cited; added tags and fusions are not shown. Lines headed by an entry give the natural chain unless they say otherwise; changes in a name come on top.
# NUTF2, P61970, UniProt P61970, whole entry: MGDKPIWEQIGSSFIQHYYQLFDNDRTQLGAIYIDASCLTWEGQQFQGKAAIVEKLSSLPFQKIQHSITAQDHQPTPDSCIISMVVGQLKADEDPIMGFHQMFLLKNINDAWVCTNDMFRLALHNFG
# TUBB8, Q3ZCM7, UniProt Q3ZCM7, whole entry: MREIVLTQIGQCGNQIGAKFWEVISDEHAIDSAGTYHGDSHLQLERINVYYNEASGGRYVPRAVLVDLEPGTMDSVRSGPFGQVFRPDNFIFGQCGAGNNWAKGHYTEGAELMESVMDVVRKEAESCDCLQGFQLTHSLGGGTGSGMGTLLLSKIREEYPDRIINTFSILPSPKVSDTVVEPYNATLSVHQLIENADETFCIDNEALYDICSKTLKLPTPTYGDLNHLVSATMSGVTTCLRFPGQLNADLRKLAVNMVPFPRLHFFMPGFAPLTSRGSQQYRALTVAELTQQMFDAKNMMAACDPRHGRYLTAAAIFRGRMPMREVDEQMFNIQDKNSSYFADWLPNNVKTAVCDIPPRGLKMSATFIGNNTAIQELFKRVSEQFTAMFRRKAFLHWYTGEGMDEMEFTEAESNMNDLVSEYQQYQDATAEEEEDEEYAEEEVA
# SRPK1, Q96SB4, UniProt Q96SB4, whole entry: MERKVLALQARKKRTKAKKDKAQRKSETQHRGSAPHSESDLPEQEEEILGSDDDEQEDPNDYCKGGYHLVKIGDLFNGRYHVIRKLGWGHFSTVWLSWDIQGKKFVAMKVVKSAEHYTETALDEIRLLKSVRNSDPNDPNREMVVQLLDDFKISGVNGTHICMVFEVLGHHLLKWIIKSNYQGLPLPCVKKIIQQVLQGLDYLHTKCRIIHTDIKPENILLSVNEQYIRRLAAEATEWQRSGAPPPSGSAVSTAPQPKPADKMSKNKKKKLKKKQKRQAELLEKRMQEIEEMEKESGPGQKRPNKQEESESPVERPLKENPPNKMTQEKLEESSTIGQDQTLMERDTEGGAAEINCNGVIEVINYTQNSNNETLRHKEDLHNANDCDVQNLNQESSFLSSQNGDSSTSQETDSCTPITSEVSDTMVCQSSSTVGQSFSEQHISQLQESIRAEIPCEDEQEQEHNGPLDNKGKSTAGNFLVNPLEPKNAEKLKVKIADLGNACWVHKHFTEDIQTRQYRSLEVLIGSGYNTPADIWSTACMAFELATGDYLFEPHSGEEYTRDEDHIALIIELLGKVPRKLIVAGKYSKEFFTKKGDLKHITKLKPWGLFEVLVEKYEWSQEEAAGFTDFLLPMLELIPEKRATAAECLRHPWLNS
# A2M, P01023, UniProt P01023, whole entry: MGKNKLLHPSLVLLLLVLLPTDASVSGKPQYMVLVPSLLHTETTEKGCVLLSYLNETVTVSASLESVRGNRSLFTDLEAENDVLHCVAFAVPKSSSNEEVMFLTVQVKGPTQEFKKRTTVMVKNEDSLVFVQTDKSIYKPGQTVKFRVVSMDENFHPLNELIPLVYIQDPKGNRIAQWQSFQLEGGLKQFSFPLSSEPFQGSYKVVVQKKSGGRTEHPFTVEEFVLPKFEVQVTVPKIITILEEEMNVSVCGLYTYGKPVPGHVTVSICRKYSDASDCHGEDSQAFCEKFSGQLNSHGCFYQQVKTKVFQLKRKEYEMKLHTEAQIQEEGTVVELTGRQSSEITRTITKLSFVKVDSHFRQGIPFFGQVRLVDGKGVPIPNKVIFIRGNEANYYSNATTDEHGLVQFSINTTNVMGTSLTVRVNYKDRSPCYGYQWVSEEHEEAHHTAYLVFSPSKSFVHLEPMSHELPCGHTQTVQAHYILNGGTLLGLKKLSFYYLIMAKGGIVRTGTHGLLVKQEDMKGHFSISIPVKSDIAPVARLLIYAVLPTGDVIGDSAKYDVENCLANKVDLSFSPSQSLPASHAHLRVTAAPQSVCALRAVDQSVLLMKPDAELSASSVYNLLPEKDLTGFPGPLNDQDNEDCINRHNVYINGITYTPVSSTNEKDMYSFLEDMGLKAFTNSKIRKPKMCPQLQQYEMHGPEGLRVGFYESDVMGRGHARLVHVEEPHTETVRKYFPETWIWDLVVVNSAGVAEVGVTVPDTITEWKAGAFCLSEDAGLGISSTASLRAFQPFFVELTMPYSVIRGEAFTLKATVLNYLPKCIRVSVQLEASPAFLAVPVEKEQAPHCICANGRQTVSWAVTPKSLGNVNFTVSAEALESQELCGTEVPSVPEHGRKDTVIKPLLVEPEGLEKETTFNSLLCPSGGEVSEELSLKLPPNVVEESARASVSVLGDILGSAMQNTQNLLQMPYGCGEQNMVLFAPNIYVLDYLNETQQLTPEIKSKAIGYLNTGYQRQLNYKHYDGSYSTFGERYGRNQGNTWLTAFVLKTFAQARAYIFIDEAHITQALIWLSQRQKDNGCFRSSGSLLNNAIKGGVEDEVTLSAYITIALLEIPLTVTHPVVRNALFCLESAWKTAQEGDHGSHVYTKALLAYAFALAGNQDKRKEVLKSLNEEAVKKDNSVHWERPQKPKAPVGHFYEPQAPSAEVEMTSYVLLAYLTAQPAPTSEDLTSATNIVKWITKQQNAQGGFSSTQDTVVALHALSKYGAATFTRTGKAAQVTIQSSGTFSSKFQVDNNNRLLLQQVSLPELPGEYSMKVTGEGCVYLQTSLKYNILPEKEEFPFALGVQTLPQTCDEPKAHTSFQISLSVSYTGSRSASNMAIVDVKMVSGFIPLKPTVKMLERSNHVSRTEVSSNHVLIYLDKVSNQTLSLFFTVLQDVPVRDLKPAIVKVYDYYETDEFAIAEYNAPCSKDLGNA
# EIF1, P41567, UniProt P41567, whole entry: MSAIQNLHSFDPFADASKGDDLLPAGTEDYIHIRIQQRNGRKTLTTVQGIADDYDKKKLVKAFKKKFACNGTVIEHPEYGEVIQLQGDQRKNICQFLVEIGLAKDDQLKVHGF
# GPN1, Q9HCN4, UniProt Q9HCN4, whole entry: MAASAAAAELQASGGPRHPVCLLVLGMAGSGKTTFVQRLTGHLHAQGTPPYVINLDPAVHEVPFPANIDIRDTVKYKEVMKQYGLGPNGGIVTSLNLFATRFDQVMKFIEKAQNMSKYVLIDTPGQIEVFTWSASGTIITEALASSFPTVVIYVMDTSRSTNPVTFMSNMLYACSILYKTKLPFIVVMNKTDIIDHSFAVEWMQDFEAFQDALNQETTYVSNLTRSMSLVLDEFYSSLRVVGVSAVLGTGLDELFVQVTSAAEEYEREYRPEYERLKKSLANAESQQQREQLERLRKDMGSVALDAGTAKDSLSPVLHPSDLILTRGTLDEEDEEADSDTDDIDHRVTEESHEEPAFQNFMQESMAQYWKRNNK
# NDUFB11, Q9NX14, UniProt Q9NX14, whole entry: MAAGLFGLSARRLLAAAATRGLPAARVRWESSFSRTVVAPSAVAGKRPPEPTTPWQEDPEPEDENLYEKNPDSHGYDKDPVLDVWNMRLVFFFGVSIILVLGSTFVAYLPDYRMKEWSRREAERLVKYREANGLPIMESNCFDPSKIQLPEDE
# PGAM5, Q96HS1, UniProt Q96HS1, whole entry: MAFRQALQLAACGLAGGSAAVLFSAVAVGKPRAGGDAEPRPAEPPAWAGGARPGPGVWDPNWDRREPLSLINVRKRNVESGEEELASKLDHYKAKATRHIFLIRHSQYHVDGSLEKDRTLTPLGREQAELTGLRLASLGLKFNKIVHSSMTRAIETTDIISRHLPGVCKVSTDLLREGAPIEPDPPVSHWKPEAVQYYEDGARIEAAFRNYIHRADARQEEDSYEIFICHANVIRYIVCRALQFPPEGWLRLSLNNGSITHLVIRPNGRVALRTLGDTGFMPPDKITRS
# The other results are listed elsewhere or left out. The list holds hits alone, and they repeat only in part.
# Experiments:
# Assay in all cases: PRISMA enrichment of interactor (LFQ) in peptide spot vs all other peptide spots (log2 fold change); higher = stronger / more specific binding of the interactor to the peptide
# [1] = biological target: NUP54, Q7Z3B4
# Protocol: (§1)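 PRISMA: 221 full-length sORF-encoded peptides (3-15 aa), plus SOS1/GLUT1 control peptides, were spot-synthesized on cellulose membranes in triplicate. Membranes were incubated with HEK293T lysate, and bound proteins were identified by LC-MS/MS with LFQ. Enrichment is the log2 fold change versus all other peptide spots; only significant interactors are listed (cutoff c=6, x0=2.8).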
# [2] = biological target: NUTF2, P61970
# Protocol: as §1
# [3] = biological target: NXT1, Q9UKK6
# Protocol: as §1
# [4] = biological target: PINX1, Q96BK5
# Protocol: as §1
# [5] = biological target: RCN2, Q14257
# Protocol: as §1
# [6] = biological target: TUBB8, Q3ZCM7
# Protocol: as §1
# [7] = biological target: SERPINB10, P48595
# Protocol: as §1
# [8] = biological target: SRPK1, Q96SB4
# Protocol: as §1
# [9] = biological target: TBCD, Q9BTW9
# Protocol: as §1
# [10] = biological target: UTP11, Q9Y3A2
# Protocol: as §1
# [11] = biological target: TPT1, P13693
# Protocol: as §1
# [12] = biological target: FAM49B, Q9NUQ9
# Protocol: (§2)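 PRISMA: 15-aa overlapping tiles (offset 8 aa) of 60 microproteins, plus SOS1/GLUT1 control peptides, were spot-synthesized on cellulose membranes in triplicate. Membranes were incubated with benzonase-treated HEK293T lysate, and bound proteins were identified by LC-MS/MS with LFQ. Enrichment is the log2 fold change of each protein in one spot versus all other spots. Only interactors passing the significance cutoff are listed.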
# [13] = biological target: GPD1L, Q8N335
# Protocol: as §2
# [14] = biological target: GSK3B, P49841
# Protocol: as §2
# [15] = biological target: NTMT1, Q9BV86
# Protocol: as §2
# [16] = biological target: TRAF2, Q12933
# Protocol: as §1
# [17] = biological target: TRAF7, Q6Q0C0
# Protocol: as §1
# [18] = biological target: A2M, P01023
# Protocol: as §2
# [19] = biological target: ACLY, P53396
# Protocol: as §2
# [20] = biological target: ARHGDIA, P52565
# Protocol: as §2
# [21] = biological target: ARIH1, Q9Y4X5
# Protocol: as §2
# [22] = biological target: CDC45, O75419
# Protocol: as §2
# [23] = biological target: CKAP2L, Q8IYA6
# Protocol: as §2
# [24] = biological target: CLASRP, Q8N2M8
# Protocol: as §2
# [25] = biological target: CREBBP, Q92793
# Protocol: as §2
# [26] = biological target: CWC25, Q9NXE8
# Protocol: as §2
# [27] = biological target: DBR1, Q9UK59
# Protocol: as §2
# [28] = biological target: ECHS1, P30084
# Protocol: as §2
# [29] = biological target: EIF1, P41567
# Protocol: as §2
# [30] = biological target: FGA, P02671
# Protocol: as §2
# [31] = biological target: FRG1, Q14331
# Protocol: as §2
# [32] = biological target: GPN1, Q9HCN4
# Protocol: as §2
# [33] = biological target: HNRNPAB, Q99729
# Protocol: as §2
# [34] = biological target: NDUFB11, Q9NX14
# Protocol: as §2
# [35] = biological target: NOL9, Q5SY16
# Protocol: as §2
# [36] = biological target: OSBPL3, Q9H4L5
# Protocol: as §2
# [37] = biological target: PGAM5, Q96HS1
# Protocol: as §2
# [38] = biological target: PTCD3, Q96EY7
# Protocol: as §2
# [39] = biological target: RBM34, P42696
# Protocol: as §2
# [40] = biological target: RFC1, P35251
# Protocol: as §2
# [41] = biological target: SRSF10, O75494
# Protocol: as §2
# [42] = substrate: SSB, P05455
# Protocol: as §2
# [43] = biological target: TARS, P26639
# Protocol: as §2
# [44] = biological target: TFAM, Q00059
# Protocol: as §2
# [45] = biological target: TMED1, Q13445
# Protocol: as §2
# [46] = biological target: UBAC2, Q8NBM4
# Protocol: as §2
# [47] = biological target: VIRMA, Q69YN4
# Protocol: as §2
# [48] = biological target: XRCC5, P13010
# Protocol: as §2
binder,measurement,setting,value
MSLAWFSLHWA [ADGRF5],PRISMA enrichment of interactor (log2),[1],4.83
MAFLNG [NR2F2],PRISMA enrichment of interactor (log2),[2],5.26
MTDKYRRMGIKY [ZZZ3],PRISMA enrichment of interactor (log2),[3],5.14
same,PRISMA enrichment of interactor (log2),[4],6.7
MRAVRVV [RDH10],PRISMA enrichment of interactor (log2),[5],7.4
same,PRISMA enrichment of interactor (log2),[6],6.91
MLKMMTFFQGL [TNFAIP2],PRISMA enrichment of interactor (log2),[7],4.37
MRRGIIV [TMEM173],PRISMA enrichment of interactor (log2),[8],7.48
same,PRISMA enrichment of interactor (log2),[6],6.02
MAVLLKGL [VPS39],PRISMA enrichment of interactor (log2),[9],5.37
same,PRISMA enrichment of interactor (log2),[10],4.55
MKGQY [BANCR],PRISMA enrichment of interactor (log2),[11],10.6
same,PRISMA enrichment of interactor (log2),[12],4.25
same,PRISMA enrichment of interactor (log2),[13],4.98
same,PRISMA enrichment of interactor (log2),[14],6.39
same,PRISMA enrichment of interactor (log2),[15],4.1
MSYNNRMQESTYQ [MAGI2-AS3],PRISMA enrichment of interactor (log2),[16],8.97
MCGTFIAE [PDGFRA],PRISMA enrichment of interactor (log2),[17],8.22
FPVLTVTQGTTCEMK [LINC00881],PRISMA enrichment of interactor (log2),[18],4.15
same,PRISMA enrichment of interactor (log2),[19],4.74
same,PRISMA enrichment of interactor (log2),[20],4.02
same,PRISMA enrichment of interactor (log2),[21],3.87
same,PRISMA enrichment of interactor (log2),[22],3.89
same,PRISMA enrichment of interactor (log2),[23],4.38
same,PRISMA enrichment of interactor (log2),[24],4.52
same,PRISMA enrichment of interactor (log2),[25],3.71
same,PRISMA enrichment of interactor (log2),[26],5.46
same,PRISMA enrichment of interactor (log2),[27],5.43
same,PRISMA enrichment of interactor (log2),[28],4.94
same,PRISMA enrichment of interactor (log2),[29],6.34
same,PRISMA enrichment of interactor (log2),[30],4.91
same,PRISMA enrichment of interactor (log2),[31],4.24
same,PRISMA enrichment of interactor (log2),[32],6.58
same,PRISMA enrichment of interactor (log2),[33],4.81
same,PRISMA enrichment of interactor (log2),[34],5.47
same,PRISMA enrichment of interactor (log2),[35],5.36
same,PRISMA enrichment of interactor (log2),[36],3.58
same,PRISMA enrichment of interactor (log2),[37],5.11
same,PRISMA enrichment of interactor (log2),[38],5.68
same,PRISMA enrichment of interactor (log2),[39],7.35
same,PRISMA enrichment of interactor (log2),[40],4.88
same,PRISMA enrichment of interactor (log2),[41],6.1
same,PRISMA enrichment of interactor (log2),[42],7.25
same,PRISMA enrichment of interactor (log2),[43],5.45
same,PRISMA enrichment of interactor (log2),[44],6.84
same,PRISMA enrichment of interactor (log2),[45],5.12
same,PRISMA enrichment of interactor (log2),[46],4.78
same,PRISMA enrichment of interactor (log2),[47],4.61
same,PRISMA enrichment of interactor (log2),[48],4.91

# Already shown: entries from further up.
binder,measurement,setting,value
FPVLTVTQGTTCEMK [LINC00881],PRISMA enrichment of interactor (log2),[45],5.12
same,PRISMA enrichment of interactor (log2),[46],4.78
same,PRISMA enrichment of interactor (log2),[47],4.61
